A short description of this data set: general procedure: Fmoc solid-phase peptide synthesis; Novasyn TGA resin (substitution 0.29 mmol g^-1); HBTU/HOBt/DIPEA; cyclization with PyBop/HOBt/DIPEA. The settings on record: whole synthesis, overall, scale of the general procedure 0.25 mmol.

In turn, SEQ ID NO: 2 (MDDPGRNPHKGPAT) returned an isolated yield of 54%. In the case of SEQ ID NO: 3 (RNPHKGPAT) it was 58%.

(Values after US9309288B2 (ADVANCED ACCELERATOR APPLICATIONS, priority 2005, dated 2016).)
